# In patent US4404378A, “2-Substituted or unsubstituted aminocarbonyloxyalkyl-1,4-dihydropyridines” (Banyu Pharmaceutical Co., Ltd., priority 1981, dated 1983):
# Key:
# [1] = Acute toxicity, i.v., up-and-down method; conditions: mouse, in vivo, iv
# DM strain male mice = assay: Acute toxicity, i.v., up-and-down method; conditions: Table 1(a); i.v., male mice
compound,measurement,setting,value
"COC(=O)C1=C(C)NC(C)=C(C(=O)OC)C1c1ccccc1[N+](=O)[O-] [nifedipine, 2,6-Dimethyl-4-(2-nitrophenyl)-3,5-dimethoxycarbonyl-1,4-dihydropyridine]",LD50,[1],11.5 mg/kg
same,Acute toxicity LD50,DM strain male mice,11.5 mg/kg
